The target of the assay is γ-secretase activating protein (GSAP) (mouse (endogenous in N2A)) (UniProt Q3TCV3). Briefly: co-IP; N2A-APPswe cell lysates (50 mM HEPES, 150 mM NaCl, 5 mM MgCl2, 5 mM CaCl2, CHAPSO diluted to 0.25%); 5 μg anti-GSAP antibody for 3 hr at room temperature, then Dynabeads M-280 sheep anti-rabbit IgG overnight at 4 °C; blotted for 5LO or 12-15LO.

Sequences of proteins named here, by UniProt entry; tags and fusion partners are left off. A change or cut given only in a name is not applied to a line headed by its entry.
UniProt Q3TCV3: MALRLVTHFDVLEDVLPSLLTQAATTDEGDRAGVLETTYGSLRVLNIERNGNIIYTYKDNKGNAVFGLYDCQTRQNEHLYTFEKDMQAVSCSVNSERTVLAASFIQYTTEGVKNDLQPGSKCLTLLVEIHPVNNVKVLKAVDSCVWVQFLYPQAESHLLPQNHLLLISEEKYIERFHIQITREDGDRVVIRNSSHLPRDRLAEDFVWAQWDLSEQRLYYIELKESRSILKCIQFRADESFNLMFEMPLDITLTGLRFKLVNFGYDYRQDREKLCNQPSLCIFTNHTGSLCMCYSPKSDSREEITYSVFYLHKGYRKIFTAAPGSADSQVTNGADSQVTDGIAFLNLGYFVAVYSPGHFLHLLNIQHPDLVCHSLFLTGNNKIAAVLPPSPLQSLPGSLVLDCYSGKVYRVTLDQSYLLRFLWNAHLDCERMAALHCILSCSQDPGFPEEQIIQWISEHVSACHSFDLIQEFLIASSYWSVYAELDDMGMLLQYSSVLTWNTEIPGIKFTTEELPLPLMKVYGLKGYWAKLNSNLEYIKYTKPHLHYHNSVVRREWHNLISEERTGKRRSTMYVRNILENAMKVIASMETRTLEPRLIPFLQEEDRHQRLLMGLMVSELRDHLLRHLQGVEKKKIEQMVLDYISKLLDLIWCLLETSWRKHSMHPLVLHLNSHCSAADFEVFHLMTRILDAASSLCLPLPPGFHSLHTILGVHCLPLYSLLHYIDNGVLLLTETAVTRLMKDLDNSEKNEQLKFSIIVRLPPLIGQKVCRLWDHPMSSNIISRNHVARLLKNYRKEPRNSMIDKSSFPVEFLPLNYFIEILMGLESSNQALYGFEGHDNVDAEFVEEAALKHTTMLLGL

Results are given in words; binding and its absence hold for the method and conditions named. Binding seen in cells or lysates may run through a third protein. Some entries that bind do so weakly or less than the wild type.

B1: 5-Lipoxygenase (5LO) (enzyme, UniProt P09917 1-674)
chain: MPSYTVTVATGSQWFAGTDDYIYLSLVGSAGCSEKHLLDKPFYNDFERGAVDSYDVTVDEELGEIQLVRIEKRKYWLNDDWYLKYITLKTPHGDYIEFPCYRWITGDVEVVLRDGRAKLARDDQIHILKQHRRKELETRQKQYRWMEWNPGFPLSIDAKCHKDLPRDIQFDSEKGVDFVLNYSKAMENLFINRFMHMFQSSWNDFADFEKIFVKISNTISERVMNHWQEDLMFGYQFLNGCNPVLIRRCTELPEKLPVTTEMVECSLERQLSLEQEVQQGNIFIVDFELLDGIDANKTDPCTLQFLAAPICLLYKNLANKIVPIAIQLNQIPGDENPIFLPSDAKYDWLLAKIWVRSSDFHVHQTITHLLRTHLVSEVFGIAMYRQLPAVHPIFKLLVAHVRFTIAINTKAREQLICECGLFDKANATGGGGHVQMVQRAMKDLTYASLCFPEAIKARGMESKEDIPYYFYRDDGLLVWEAIRTFTAEVVDIYYEGDQVVEEDPELQDFVNDVYVYGMRGRKSSGFPKSVKSREQLSEYLTVVIFTASAQHAAVNFGQYDWCSWIPNAPPTMRAPPPTAKGVVTIEQIVDTLPDRGRSCWHLGAVWALSQFQENELFLGMYPEEHFIEKPVKEAMARFRKNLEAIVSVIAERNKKKQLPYYYLSPDRIPNSVAI
For the molecule B1, the binding result was “binds”.

B2: 12-15LO (enzyme, UniProt P39654 1-663)
chain: MGVYRIRVSTGDSVYAGSNNEVYLWLIGQHGEASLGKLFRPCRNSEAEFKVDVSEYLGPLLFVRVQKWHYLKEDAWFCNWISVKGPGDQGSEYTFPCYRWVQGTSILNLPEGTGCTVVEDSQGLFRNHREEELEERRSLYRWGNWKDGTILNVAATSISDLPVDQRFREDKRLEFEASQVLGTMDTVINFPKNTVTCWKSLDDFNYVFKSGHTKMAERVRNSWKEDAFFGYQFLNGANPMVLKRSTCLPARLVFPPGMEKLQAQLDEELKKGTLFEADFFLLDGIKANVILCSQQYLAAPLVMLKLQPDGQLLPIAIQLELPKTGSTPPPIFTPLDPPMDWLLAKCWVRSSDLQLHELQAHLLRGHLVAEVFAVATMRCLPSVHPVFKLLVPHLLYTMEINVRARSDLISERGFFDKVMSTGGGGHLDLLKQAGAFLTYSSLCPPDDLAERGLLDIDTCFYAKDALQLWQVMNRYVVGMFDLYYKTDQAVQDDYELQSWCQEITEIGLQGAQDRGFPTSLQSRAQACHFITMCIFTCTAQHSSIHLGQLDWFYWVPNAPCTMRLPPPKTKDATMEKLMATLPNPNQSTLQINVVWLLGRRQAVMVPLGQHSEEHFPNPEAKAVLKKFREELAALDKEIEIRNKSLDIPYEYLRPSLVENSVAI
For the molecule B2, the binding entry was “no binding”.

(Values after article PMC4468577.)
